The structures appear in SMILES notation. Where two headings read alike, the source gives them in different places.

The results in this text go back to US20140000886A1, “PETROLEUM RECOVERY PROCESS AND SYSTEM” (Shell Oil Company, priority 2012, published 2014).

Data set [1] is described as follows: SARA analysis of bitumen samples extracted by each solvent.
The nature of data set [2]: Oil recovery from formation core by brine displacement followed by DMS displacement. The note with it: after brine displacement. As to the method:
Incremental recovery of oil from a formation core using an oil recovery formulation consisting of dimethyl sulfide following oil recovery from the core by water-flooding was measured to evaluate the effectiveness of DMS as a tertiary oil recovery agent.
Two 5.02 cm long Berea sandstone cores with a core diameter of 3.78 cm and a permeability between 925 and 1325 mD were saturated with a brine having a composition as set forth in Table 7.
After saturation of the cores with brine, the brine was displaced by a Middle Eastern Asphaltic crude oil having the characteristics as set forth above in Table 3 to saturate the cores with oil.
Oil was recovered from each oil saturated core by the addition of brine to the core under pressure and by subsequent addition of DMS to the core under pressure. Each core was treated as follows to determine the amount of oil recovered from the core by addition of brine followed by addition of DMS. Oil was initially displaced from the core by addition of brine to the core under pressure. A confining pressure of 1 MPa was applied to the core during addition of the brine, and the flow rate of brine to the core was set at 0.05 ml/min. The core was maintained at a temperature of 50° C. during displacement of oil from the core with brine. Oil was produced and collected from the core during the displacement of oil from the core with brine until no further oil production was observed (24 hours). After no further oil was displaced from the core by the brine, oil was displaced from the core by addition of DMS to the core under pressure. DMS was added to the core at a flow rate of 0.05 ml/min for a period of 32 hours for the first core and for a period of 15 hours for the second core. Oil displaced from the each core during the addition of DMS to the core was collected separately from the oil displaced by the addition of brine to the core.
The oil samples collected from each core by brine displacement and by DMS displacement were isolated from water by extraction with dichloromethane, and the separated organic layer was dried over sodium sulfate. After evaporation of volatiles from the separated, dried organic layer of each oil sample, the amount of oil displaced by brine addition to a core and the amount of oil displaced by DMS addition to the core were weighed. Volatiles were also evaporated from a sample of the Middle Eastern asphaltic oil to be able to correct for loss of light-end compounds during evaporation.

[3] abbreviates: Core 1, 0.05 ml/min for 32 hours.
[4] abbreviates: Core 2, 0.05 ml/min for 15 hours.

As to `S=C=S` [Carbon Disulfide, carbon disulfide], in data set [1] (bitumen extracted at 30° C.), the “Aromatics in extracted bitumen” value amounted to 41.89 Normalized Weight Percent, the “Asphaltenes in extracted bitumen” value is listed as 13.85 Normalized Weight Percent, the “Resins in extracted bitumen” value is recorded as 25.49 Normalized Weight Percent and the “Saturates in extracted bitumen” value came out at 18.77 Normalized Weight Percent.
`ClC(Cl)Cl` [Chloroform, chloroform]: in data set [1], the “Aromatics in extracted bitumen” value was determined as 43.56 Normalized Weight Percent, the “Asphaltenes in extracted bitumen” value was determined as 14.86 Normalized Weight Percent and the “Resins in extracted bitumen” value was 25.94 Normalized Weight Percent. The “Saturates in extracted bitumen” value in data set [1] (bitumen extracted at 30° C.) is reported as 15.64 Normalized Weight Percent.
Take `CSC` [Dimethyl Sulfide, dimethyl sulfide]: in data set [1] (SARA analysis), the “Extraction of asphaltenes from oil sands / miscibility with asphaltenes” value is on record as “excellent miscibility properties”. Besides, in data set [1] (bitumen extracted at 30° C.), the “Aromatics in extracted bitumen” value is reported as 47.07 Normalized Weight Percent, the “Asphaltenes in extracted bitumen” value turned out to be 13.19 Normalized Weight Percent, the “Resins in extracted bitumen” value turned out to be 24.25 Normalized Weight Percent and the “Saturates in extracted bitumen” value worked out at 15.49 Normalized Weight Percent. Besides, in data set [2] (setting [3]), the “Oil produced DMS displacement” value worked out at 3.5 mL and the “Oil produced DMS displacement (of % oil initially in core)” value is 32%. Moreover, in data set [2] (setting [4]), the “Oil produced DMS displacement” value is 3.3 mL and the “Oil produced DMS displacement (of % oil initially in core)” value is given as 30%.
`C1CCOC1` [Tetrahydrofuran, tetrahydrofuran]: in data set [1] (bitumen extracted at 30° C.), the “Aromatics in extracted bitumen” value is 45.24 Normalized Weight Percent, the “Asphaltenes in extracted bitumen” value was determined as 14.27 Normalized Weight Percent, the “Resins in extracted bitumen” value is listed as 24.38 Normalized Weight Percent and the “Saturates in extracted bitumen” value amounted to 16.11 Normalized Weight Percent.
For `Cc1ccccc1C` [o-Xylene, o-xylene] the same measures were 46.39 Normalized Weight Percent, 13.96 Normalized Weight Percent, 22.28 Normalized Weight Percent and 17.37 Normalized Weight Percent.
